These are yes or no findings as the source states them, for the method shown.
Target: T1, Rassf5A-RA, Rassf5A protein containing only Ras binding domain (200–365) (mouse) (UniProt Q5EBH1)
T1 sequence: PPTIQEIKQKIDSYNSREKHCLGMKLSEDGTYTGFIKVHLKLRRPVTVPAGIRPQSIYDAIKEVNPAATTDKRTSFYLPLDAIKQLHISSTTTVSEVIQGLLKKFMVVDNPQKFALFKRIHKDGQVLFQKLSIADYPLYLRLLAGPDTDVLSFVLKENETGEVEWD
Test: condition: 50 μM (highest analyte concentration, from the methods); SPR; BIAcore T200; GST-Rassf constructs captured on immobilised anti-GST antibody (GST alone on the reference channel); Mst1 constructs as analytes, 0.7-50 μM, flow 30–45 μl/min, HBS-N running buffer, 25 °C; surface regenerated and ligand freshly captured for each concentration; 1:1 binding model, fitted locally; both purified

- binding: no binding
B1: Mst1-C, Mst1 kinase containing only SARAH domain (432–487) (domain or fragment, UniProt Q13043 432-487)
chain: DYEFLKSWTVEDLQKRLLALDPMMEQEIEEIRQKYQSKRQPILDAIEAKKRRQQNF

From paper PMC5361201
